Laboratory results published in doi:10.1101/2020.05.20.107664.
Results are given in words; binding and its absence hold for the method and conditions named. In cells and extracts the contact can be indirect. Some results given as binding are weak or reduced against the parent protein; the word gives no strength. Where a sequence is shown, tags or fusion partners need not be part of it.

Molecular target: T1, wild-type α-COP (α-COP-FLAG), transfected in HEK293T (mouse) (UniProt Q8CIE6)
T1 sequence: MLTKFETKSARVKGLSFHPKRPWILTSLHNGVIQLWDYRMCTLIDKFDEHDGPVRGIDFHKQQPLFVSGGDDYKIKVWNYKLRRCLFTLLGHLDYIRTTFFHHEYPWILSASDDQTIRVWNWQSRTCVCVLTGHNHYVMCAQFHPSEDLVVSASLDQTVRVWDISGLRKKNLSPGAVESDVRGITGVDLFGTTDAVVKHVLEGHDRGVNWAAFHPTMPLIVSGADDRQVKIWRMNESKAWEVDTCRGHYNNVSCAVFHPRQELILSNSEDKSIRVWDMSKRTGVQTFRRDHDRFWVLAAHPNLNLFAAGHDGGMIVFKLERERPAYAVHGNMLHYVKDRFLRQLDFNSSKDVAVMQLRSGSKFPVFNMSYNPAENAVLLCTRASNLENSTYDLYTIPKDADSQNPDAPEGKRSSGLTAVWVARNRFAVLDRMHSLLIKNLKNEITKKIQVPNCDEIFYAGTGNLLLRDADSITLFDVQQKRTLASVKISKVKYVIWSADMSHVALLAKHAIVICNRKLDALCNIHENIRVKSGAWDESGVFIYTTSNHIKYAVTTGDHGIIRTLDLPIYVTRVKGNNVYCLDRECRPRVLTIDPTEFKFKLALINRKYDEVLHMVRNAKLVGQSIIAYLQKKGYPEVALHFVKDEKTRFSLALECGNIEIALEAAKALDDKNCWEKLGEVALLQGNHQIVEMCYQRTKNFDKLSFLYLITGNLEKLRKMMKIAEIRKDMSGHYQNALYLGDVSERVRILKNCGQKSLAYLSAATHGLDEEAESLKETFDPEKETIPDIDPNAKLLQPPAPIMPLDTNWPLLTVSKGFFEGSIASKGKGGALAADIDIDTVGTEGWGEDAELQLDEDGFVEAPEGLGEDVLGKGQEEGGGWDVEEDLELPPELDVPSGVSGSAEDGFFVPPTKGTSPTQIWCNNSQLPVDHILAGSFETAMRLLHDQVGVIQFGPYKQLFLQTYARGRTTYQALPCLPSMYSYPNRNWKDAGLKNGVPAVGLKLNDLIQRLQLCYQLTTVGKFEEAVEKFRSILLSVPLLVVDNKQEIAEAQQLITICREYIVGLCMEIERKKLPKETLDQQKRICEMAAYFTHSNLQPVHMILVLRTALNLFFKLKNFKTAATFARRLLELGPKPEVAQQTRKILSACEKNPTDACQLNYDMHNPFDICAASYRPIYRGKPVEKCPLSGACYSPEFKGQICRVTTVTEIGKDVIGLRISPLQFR
Test: co-IP

- binding: binds
B1: mutant Surf4 (K265A/K266A/K267A), transfected in HEK293T (protein, UniProt Q64310 1-269)
chain: MGQNDLMGTAEDFADQFLRVTKQYLPHVARLCLISTFLEDGIRMWFQWSEQRDYIDTTWSCGYLLASSFVFLNLLGQLTGCVLVLSRNFVQYACFGLFGIIALQTIAYSILWDLKFLMRNLALGGGLLLLLAESRSEGKSMFAGVPTMRESSPKQYMQLGGRVLLVLMFMTLLHFDASFFSIIQNIVGTALMILVAIGFKTKLAALTLVVWLFAINVYFNAFWTIPVYKPMHDFLKYDFFQTMSVIGGLLLVVALGPGGVSMDEAAAEW
